Measurements reported in patent US20250011296A1, “MODULATORS OF MOLECULAR TARGETS EXPRESSED IN METABOLIC AND INFLAMMATORY DISORDERS” (Ohio State Innovation Foundation, priority 2021, published 2025).
At least one compound was matched to its structure with a doubt left.

Test system: PPAR-γ expression
Assay: Larval diabetic zebrafish assay, Western blot of PPAR-γ
Type: in vivo
Details: duplicate Western blot (FIG. 8), diabetic zebrafish larvae, 10 μM
Method: Western blot analysis of zebrafish expression levels for glycated hemoglobin, metabolic enzymes, and molecular targets NFκB and PPAR-γ was performed to evaluate potential lead improvement and to discover possible mechanisms of action.
Wild-type zebrafish were sorted into 24-well microplates with 10 fish per well for a four-phase treatment cycle. At 72 hpf, type 2 diabetes was induced by administering 0.5 mg/mL alloxan in fish water for percutaneous absorption. […] Following centrifugation (60 minutes at 4° C. and 17,000 rpm), protein content of the homogenate supernatant was determined using the Pierce BCA Protein Assay kit (Pierce Biotechnology). Homogenates were analyzed by Western blot with equal amounts of total protein (20 μg) in each sample and using 4×LDS loading buffer (NuPAGE Life Technologies).
Electrophoresis was performed with NuPAGE MES SDS Running Buffer and using the XCell SureLock Mini-Cell Electrophoresis System (Life Technologies). […] The HRP conjugated antibodies were detected using SuperSignal West Femto chemiluminescent substrate (Pierce Biotechnology) and immunoblot images were captured using the luminometer and Lumi Analyst 3.0 software.
Band densities were determined using ImageJ Gel Analysis to determine expression levels of each protein of interest. […]

With `CN(CCOc1ccc(CC2SC(=O)NC2=O)cc1)c1ccccn1` (stereo not shown) [rosiglitazone, reference compound] the “PPAR-γ expression (band density)” value was “high PPAR-γ expression”.
